From article doi:10.1101/2022.06.19.496727
Read-outs that look alike come from different tables or passages of the source. Results are given in words; binding and its absence hold for the method and conditions named. Some results given as binding are weak or reduced against the parent protein; the word gives no strength. Tags and fused reporters may be left off the sequences shown.

T1: 8His-Smc3 R1222C (engaged-heads reporter cysteine, wild type trimer) (S. cerevisiae) (UniProt P47037)
T1 sequence: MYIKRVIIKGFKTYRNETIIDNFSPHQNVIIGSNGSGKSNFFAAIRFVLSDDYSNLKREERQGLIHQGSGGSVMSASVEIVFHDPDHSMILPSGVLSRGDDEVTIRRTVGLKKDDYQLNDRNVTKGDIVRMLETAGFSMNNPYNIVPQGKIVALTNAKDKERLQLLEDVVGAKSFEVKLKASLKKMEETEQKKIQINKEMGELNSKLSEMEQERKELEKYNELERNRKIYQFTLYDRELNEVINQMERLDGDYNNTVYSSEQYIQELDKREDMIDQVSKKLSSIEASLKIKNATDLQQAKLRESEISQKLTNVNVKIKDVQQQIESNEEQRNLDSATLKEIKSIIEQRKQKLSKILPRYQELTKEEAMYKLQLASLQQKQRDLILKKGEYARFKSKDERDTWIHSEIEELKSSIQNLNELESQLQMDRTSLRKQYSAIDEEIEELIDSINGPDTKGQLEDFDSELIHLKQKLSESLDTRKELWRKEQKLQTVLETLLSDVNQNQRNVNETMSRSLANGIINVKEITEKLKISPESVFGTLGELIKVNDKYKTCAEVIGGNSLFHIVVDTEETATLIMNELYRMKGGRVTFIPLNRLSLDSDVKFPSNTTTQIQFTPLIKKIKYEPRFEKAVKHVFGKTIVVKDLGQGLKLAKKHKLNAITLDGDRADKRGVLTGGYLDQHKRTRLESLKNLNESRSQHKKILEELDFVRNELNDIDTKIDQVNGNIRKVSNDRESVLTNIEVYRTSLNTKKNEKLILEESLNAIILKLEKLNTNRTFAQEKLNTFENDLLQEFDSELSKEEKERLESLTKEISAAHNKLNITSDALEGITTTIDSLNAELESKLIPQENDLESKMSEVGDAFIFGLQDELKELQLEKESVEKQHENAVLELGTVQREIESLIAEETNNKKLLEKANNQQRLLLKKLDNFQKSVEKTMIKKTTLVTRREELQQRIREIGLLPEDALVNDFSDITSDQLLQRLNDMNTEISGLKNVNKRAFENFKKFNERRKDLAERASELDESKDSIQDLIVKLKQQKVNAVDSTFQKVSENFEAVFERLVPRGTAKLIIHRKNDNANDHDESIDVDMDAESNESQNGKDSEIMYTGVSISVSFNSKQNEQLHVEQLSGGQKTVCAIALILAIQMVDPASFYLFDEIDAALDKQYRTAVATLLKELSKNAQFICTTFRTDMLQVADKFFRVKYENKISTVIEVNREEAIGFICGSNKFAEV

T2: 8His-Smc3 K198C (zipped-up reporter cysteine, wild type trimer) (S. cerevisiae) (UniProt P47037)
T2 sequence: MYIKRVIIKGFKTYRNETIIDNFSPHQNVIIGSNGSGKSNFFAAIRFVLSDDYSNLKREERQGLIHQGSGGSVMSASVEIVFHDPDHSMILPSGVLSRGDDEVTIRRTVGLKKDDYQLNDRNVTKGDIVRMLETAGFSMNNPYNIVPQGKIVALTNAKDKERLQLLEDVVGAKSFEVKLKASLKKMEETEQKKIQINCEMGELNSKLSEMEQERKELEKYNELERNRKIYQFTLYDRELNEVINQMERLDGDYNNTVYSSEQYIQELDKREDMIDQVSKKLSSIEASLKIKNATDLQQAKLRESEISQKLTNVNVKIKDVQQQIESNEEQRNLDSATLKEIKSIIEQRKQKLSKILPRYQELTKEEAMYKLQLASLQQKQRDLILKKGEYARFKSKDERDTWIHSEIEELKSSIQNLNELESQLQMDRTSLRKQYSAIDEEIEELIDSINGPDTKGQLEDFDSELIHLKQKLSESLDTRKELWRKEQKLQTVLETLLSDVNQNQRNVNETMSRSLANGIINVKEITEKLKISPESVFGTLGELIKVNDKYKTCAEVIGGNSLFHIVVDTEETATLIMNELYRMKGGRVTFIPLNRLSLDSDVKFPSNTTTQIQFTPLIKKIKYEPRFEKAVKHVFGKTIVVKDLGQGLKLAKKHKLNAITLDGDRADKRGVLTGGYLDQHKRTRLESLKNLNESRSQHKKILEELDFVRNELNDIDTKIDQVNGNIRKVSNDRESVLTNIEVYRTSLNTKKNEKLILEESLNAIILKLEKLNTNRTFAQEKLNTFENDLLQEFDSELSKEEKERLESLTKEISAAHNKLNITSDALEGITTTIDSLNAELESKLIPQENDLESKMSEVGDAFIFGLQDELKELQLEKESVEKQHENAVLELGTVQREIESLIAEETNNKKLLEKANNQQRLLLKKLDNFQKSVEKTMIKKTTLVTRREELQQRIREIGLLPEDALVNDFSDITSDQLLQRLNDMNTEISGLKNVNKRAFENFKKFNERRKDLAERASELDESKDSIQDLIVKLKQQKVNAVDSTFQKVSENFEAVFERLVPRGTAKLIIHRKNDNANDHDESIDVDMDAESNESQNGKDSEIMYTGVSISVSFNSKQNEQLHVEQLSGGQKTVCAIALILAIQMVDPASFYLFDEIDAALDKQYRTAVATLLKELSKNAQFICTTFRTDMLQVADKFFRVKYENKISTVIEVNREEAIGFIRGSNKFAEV


Columns and labels:
Experiment in all cases: cross-linking
[1] = molecular target: T1, 8His-Smc3 R1222C (engaged-heads reporter cysteine, wild type trimer) (S. cerevisiae)
[2] = molecular target: T2, 8His-Smc3 K198C (zipped-up reporter cysteine, wild type trimer) (S. cerevisiae)
[3] = molecular target: T2, 8His-Smc3 K198C (zipped-up reporter cysteine, wild type trimer) (S. cerevisiae); remark: listed apart in the source

| binding [1] | binding [2] | binding [3] | Binder |
| --- | --- | --- | --- |
| binds |  |  | Smc1 N1192C (engaged-heads reporter cysteine, wild type trimer) (protein, UniProt P32908 1-1225) MGRLVGLELSNFKSYRGVTKVGFGESNFTSIIGPNGSGKSNMMDAISFVLGVRSNHLRSNILKDLIYRGVLNDENSDDYDNEGAASSNPQSAYVKAFYQKGNKLVELMRIISRNGDTSYKIDGKTVSYKDYSIFLENENILIKAKNFLVFQGDVEQIAAQSPVELSRMFEEVSGSIQYKKEYEELKEKIEKLSKSATESIKNRRRIHGELKTYKEGINKNEEYRKQLDKKNELQKFQALWQLYHLEQQKEELTDKLSALNSEISSLKGKINNEMKSLQRSKSSFVKESAVISKQKSKLDYIFKDKEKLVSDLRLIKVPQQAAGKRISHIEKRIESLQKDLQRQKTYVERFETQLKVVTRSKEAFEEEIKQSARNYDKFKLNENDLKTYNCLHEKYLTEGGSILEEKIAVLNNDKREIQEELERFNKRADISKRRITEELSITGEKLDTQLNDLRVSLNEKNALHTERLHELKKLQSDIESANNQEYDLNFKLRETLVKIDDLSANQRETMKERKLRENIAMLKRFFPGVKGLVHDLCHPKKEKYGLAVSTILGKNFDSVIVENLTVAQECIAFLKKQRAGTASFIPLDTIETELPTLSLPDSQDYILSINAIDYEPEYEKAMQYVCGDSIICNTLNIAKDLKWKKGIRGKLVTIEGALIHKAGLMTGGISGDANNRWDKEEYQSLMSLKDKLLIQIDELSNGQRSNSIRAREVENSVSLLNSDIANLRTQVTQQKRSLDENRLEIKYHNDLIEKEIQPKITELKKKLDDLENTKDNLVKEKEALQNNIFKEFTSKIGFTIKEYENHSGELMRQQSKELQQLQKQILTVENKLQFETDRLSTTQRRYEKAQKDLENAQVEMKSLEEQEYAIEMKIGSIESKLEEHKNHLDELQKKFVTKQSELNSSEDILEDMNSNLQVLKRERDGIKEDIEKFDLERVTALKNCKISNINIPISSETTIDDLPISSTDNEAITISNSIDINYKGLPKKYKENNTDSARKELEQKIHEVEEILNELQPNARALERYDEAEGRFEVINNETEQLKAEEKKILNQFLKIKKKRKELFEKTFDYVSDHLDAIYRELTKNPNSNVELAGGNASLTIEDEDEPFNAGIKYHATPPLKRFKDMEYLSGGEKTVAALALLFAINSYQPSPFFVLDEVDAALDITNVQRIAAYIRRHRNPDLQFIVISLKCTMFEKSDALVGVYRQQQENSSKIITLDLSNYAE |
|  | binds | binds | Smc1 K201C (zipped-up reporter cysteine, wild type trimer) (protein, UniProt P32908 1-1225) MGRLVGLELSNFKSYRGVTKVGFGESNFTSIIGPNGSGKSNMMDAISFVLGVRSNHLRSNILKDLIYRGVLNDENSDDYDNEGAASSNPQSAYVKAFYQKGNKLVELMRIISRNGDTSYKIDGKTVSYKDYSIFLENENILIKAKNFLVFQGDVEQIAAQSPVELSRMFEEVSGSIQYKKEYEELKEKIEKLSKSATESICNRRRIHGELKTYKEGINKNEEYRKQLDKKNELQKFQALWQLYHLEQQKEELTDKLSALNSEISSLKGKINNEMKSLQRSKSSFVKESAVISKQKSKLDYIFKDKEKLVSDLRLIKVPQQAAGKRISHIEKRIESLQKDLQRQKTYVERFETQLKVVTRSKEAFEEEIKQSARNYDKFKLNENDLKTYNCLHEKYLTEGGSILEEKIAVLNNDKREIQEELERFNKRADISKRRITEELSITGEKLDTQLNDLRVSLNEKNALHTERLHELKKLQSDIESANNQEYDLNFKLRETLVKIDDLSANQRETMKERKLRENIAMLKRFFPGVKGLVHDLCHPKKEKYGLAVSTILGKNFDSVIVENLTVAQECIAFLKKQRAGTASFIPLDTIETELPTLSLPDSQDYILSINAIDYEPEYEKAMQYVCGDSIICNTLNIAKDLKWKKGIRGKLVTIEGALIHKAGLMTGGISGDANNRWDKEEYQSLMSLKDKLLIQIDELSNGQRSNSIRAREVENSVSLLNSDIANLRTQVTQQKRSLDENRLEIKYHNDLIEKEIQPKITELKKKLDDLENTKDNLVKEKEALQNNIFKEFTSKIGFTIKEYENHSGELMRQQSKELQQLQKQILTVENKLQFETDRLSTTQRRYEKAQKDLENAQVEMKSLEEQEYAIEMKIGSIESKLEEHKNHLDELQKKFVTKQSELNSSEDILEDMNSNLQVLKRERDGIKEDIEKFDLERVTALKNCKISNINIPISSETTIDDLPISSTDNEAITISNSIDINYKGLPKKYKENNTDSARKELEQKIHEVEEILNELQPNARALERYDEAEGRFEVINNETEQLKAEEKKILNQFLKIKKKRKELFEKTFDYVSDHLDAIYRELTKNPNSNVELAGGNASLTIEDEDEPFNAGIKYHATPPLKRFKDMEYLSGGEKTVAALALLFAINSYQPSPFFVLDEVDAALDITNVQRIAAYIRRHRNPDLQFIVISLKNTMFEKSDALVGVYRQQQENSSKIITLDLSNYAE |
